Source: US20260043817A1
These are yes or no findings as the source states them, for the method shown. Binding seen in cells or lysates may run through a third protein. Some results given as binding are weak or reduced against the parent protein; the word gives no strength. Sequences can lack the tags named with a protein.

By UniProt entry, the sequences of proteins in these tests, tags left out.
UniProt Q13148: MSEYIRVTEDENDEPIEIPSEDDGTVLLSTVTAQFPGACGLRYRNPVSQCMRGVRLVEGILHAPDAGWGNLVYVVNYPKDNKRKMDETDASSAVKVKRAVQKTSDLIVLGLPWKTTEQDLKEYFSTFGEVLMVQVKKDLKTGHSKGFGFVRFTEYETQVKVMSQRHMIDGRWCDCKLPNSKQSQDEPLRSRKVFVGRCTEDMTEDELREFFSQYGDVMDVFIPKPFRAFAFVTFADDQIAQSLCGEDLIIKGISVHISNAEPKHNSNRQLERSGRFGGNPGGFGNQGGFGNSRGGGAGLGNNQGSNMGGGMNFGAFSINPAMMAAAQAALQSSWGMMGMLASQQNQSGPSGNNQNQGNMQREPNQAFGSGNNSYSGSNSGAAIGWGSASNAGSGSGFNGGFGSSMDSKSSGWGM

How the values were obtained:
[1] = target: misfolded TDP43 protein generated by sodium arsenite treatment (UniProt Q13148); assay: FLAG-LONRF2 pull-down assay (FLAG-LONRF2 beads from SF9 cells) on A549 lysates, immunoblot
[2] = target: T1, misfolded hnRNP M1 protein generated by sodium arsenite treatment (UniProt P52272); assay: as above
T1 sequence (looked up): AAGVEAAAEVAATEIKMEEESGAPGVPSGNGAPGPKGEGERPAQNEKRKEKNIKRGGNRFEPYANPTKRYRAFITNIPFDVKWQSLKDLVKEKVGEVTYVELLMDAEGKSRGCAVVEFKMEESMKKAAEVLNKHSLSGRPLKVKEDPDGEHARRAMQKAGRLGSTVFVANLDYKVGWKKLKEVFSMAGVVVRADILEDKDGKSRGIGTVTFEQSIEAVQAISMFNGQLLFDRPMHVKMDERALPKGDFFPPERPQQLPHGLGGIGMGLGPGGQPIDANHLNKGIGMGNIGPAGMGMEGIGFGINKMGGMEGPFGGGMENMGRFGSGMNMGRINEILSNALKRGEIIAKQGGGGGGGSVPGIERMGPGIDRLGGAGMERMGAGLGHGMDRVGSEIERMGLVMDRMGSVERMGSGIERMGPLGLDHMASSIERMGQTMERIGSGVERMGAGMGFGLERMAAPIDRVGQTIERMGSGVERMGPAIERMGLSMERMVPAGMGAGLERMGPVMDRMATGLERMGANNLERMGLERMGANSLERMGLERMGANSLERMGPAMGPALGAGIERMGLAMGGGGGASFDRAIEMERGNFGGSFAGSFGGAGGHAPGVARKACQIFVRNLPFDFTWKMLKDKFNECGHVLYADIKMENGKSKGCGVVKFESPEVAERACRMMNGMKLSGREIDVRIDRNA

[3] = target: HA-tagged Fluc-DM (Fluc-HA-DM) (firefly) [luciferase: P08659]; assay: co-immunoprecipitation with anti-FLAG M2 gel from HeLa lysates, immunoblot
[4] = target: misfolded TDP43 protein generated by sodium arsenite treatment (UniProt Q13148); assay: co-immunoprecipitation with anti-FLAG M2 gel from sodium arsenite-treated A549 lysates, immunoblot
[5] = target: T1, misfolded hnRNP M1 protein generated by sodium arsenite treatment; assay: as above

Measured: binding

B1: FLAG-LONRF2-WT (enzyme, not shown: small tags and cut ends)
chain: MSPEPVPPPPPPQCPGCDRAEPIAQRLEEGDEAFRAGDYEMAAELFRSMLAGLAQPDRGLCLRLGDALARAGRLPEALGAFRGAARLGALRPEELEELAGGLVRAVGLRDRPLSAENPGGEPEAPGEGGPAPEPRAPRDLLGCPRCRRLLHKPVTLPCGLTVCKRCVEPGPARPQVRRVNVVLSGLLEKCFPAECRLRRLAGQARSLQRQQQPEAALLRCDQALELAPDDNSLLLLRAELYLTMKNYEQALQDASAACQNEPLLIKGHQVKAQALSGLGRSKEVLKEFLYCLALNPECNSVKKEAQKVMCEVLFSATANVHENLTSSIQSRLKAQGHSHMNAQALLEEGDAGSSENSSEKSDMLGNTNSSVLYFILGLHFEEDKKALESILPTAPSAGLKRQFPDDVEDAPDLNAPGKIPKKDLSLQRSPNSETEESQGLSLDVTDFECALCMRLLFEPVTTPCGHTFCLKCLERCLDHAPHCPLCKDKLSELLASRNFNITVLAEELIFRYLPDELSDRKRIYDEEMSELSNLTRDVPIFVCAMAFPTVPCPLHVFEPRYRLMIRRCMETGTKRFGMCLSAEHAGLSEYGCMLEIKDVRTFPDGSSVVDAIGISRFRVLSHRHRDGYNTADIEYLEDEKVEGPEYEELAALHDSVHQQSVSWFASLQDRMKEQILSHFGVMPDREPEPQSNPSGPAWSWWILAVLPLERKAQLAILGMTSLKERLLAIRRILVIITRKMNSRQELANARERNN
binds: [1] | [2] | [3] | [4] | [5]
